US12538701B2, “Compound and organic light emitting device comprising the same” (LG Chem, Ltd., priority 2020, dated 2026)

Test: Organic light emitting device evaluation with the compound as dopant of the light emitting layer
Conditions: for Driving voltage (V @10 mA/cm^2): device with compound as dopant of light emitting layer (2:98 with Compound D); for EQE (% @10 mA/cm^2): external quantum efficiency, device with compound as dopant of light emitting layer; for Lifetime (hr) (T90 @500 nit): time for luminance to fall to 90% of initial luminance (500 nit), 10 mA/cm^2
Procedure: A glass substrate thinly coated with indium tin oxide (ITO) to have a thickness of 500 Å was put into distilled water in which a detergent was dissolved, and ultrasonically washed. In this case, a product manufactured by Fischer Co., was used as the detergent, and distilled water twice filtered using a filter manufactured by Millipore Co., was used as the distilled water. After the ITO was washed for 30 minutes, ultrasonic washing was conducted twice repeatedly using distilled water for 10 minutes. After the washing using distilled water was completed, ultrasonic washing was conducted using isopropyl, and acetone solvents, and drying was conducted, and then the substrate was cleaned for 5 minutes, and then transferred to a glove box.
A coating composition, in which the following Compound B and the following Compound C (weight ratio of 2:8) were dissolved in 20 wt/v % cyclohexanone, was spin-coated (4000 rpm) on the ITO transparent electrode, and heat-treated (cured) at 200° C. for 30 minutes to form a hole injection layer with a thickness of 400 Å. A coating composition, in which the following Compound A (Mn: 27,900; Mw: 35,600; measured by gel permeation chromatography (GPC) on Agilent 1200 series, relative to PC standards) was dissolved in 6 wt/v % toluene, spin-coated (4000 rpm) on the hole injection layer, and heat-treated at 200° C. for 30 minutes to form a hole transport layer with a thickness of 200 Å.
A coating composition, in which Compound 1 prepared in Preparation Example 1 and the following Compound D (weight ratio of 2:98) were dissolved in 2 wt/v % cyclohexanone, spin-coated (4000 rpm) on the hole transport layer, and heat-treated at 180° C. for 30 minutes to form a light emitting layer with a thickness of 400 Å.
After being transferred to a vacuum depositor, the following Compound E was vacuum-deposited to a thickness of 350 Å on the light emitting layer to form an electron injection and transport layer.
LiF and aluminum were sequentially deposited to have a thickness of 10 Å and 1000 Å, respectively, on the electron injection and transport layer, thereby forming a cathode.
In the above-mentioned process, the vapor deposition rate of the organic material was maintained at 0.4 to 0.7 Å/sec, the deposition rate of LiF was maintained at 0.3 Å/sec, the deposition rate of aluminum was maintained at 2 Å/sec, and the degree of vacuum during the deposition was maintained at 2×10^−7 to 5×10^−8 torr.
An organic light emitting device was manufactured in the same manner as in Example 1, except that the compounds shown in Table 2 below were used instead of Compound 1 as a dopant of the light emitting layer.
An organic light emitting device was manufactured in the same manner as in Example 1, except that the compounds shown in Table 2 below were used instead of Compound 1 as a dopant in the light emitting layer.
The driving voltage, external quantum efficiency (EQE), and lifetime were measured by applying a current of 10 mA/cm^2 to the organic light emitting devices manufactured in the Examples and Comparative Examples, and the results are shown in Table 2 below. At this time, the external quantum efficiency (EQE) was calculated as “(the number of emitted photon)/(the number of injected charge carrier)*100”, and T90 means the time required for the luminance to be reduced to 90% of the initial luminance (500 nit).

Row | Structure (SMILES) | Driving voltage (V @10 mA/cm^2) | EQE (% @10 mA/cm^2) | Lifetime (hr) (T90 @500 nit)
1 | c1ccc(-n2c3ccccc3c3cc(-c4ccc(N(c5ccc6ccccc6c5)c5ccc6c(ccc7c8c9c%10ccc%11cc(N(c%12ccc(-c%13ccc%14c(c%13)c%13ccccc%13n%14-c%13ccccc%13)cc%12)c%12ccc%13ccccc%13c%12)ccc%11c%10n(-c%10ccccc%10)c9ccc8n(-c8ccccc8)c67)c5)cc4)ccc32)cc1 [Compound 9] | 4.36 V | 8.74% | 137 h
2 | c1ccc(N(c2ccc3cc(-c4cc5ccccc5o4)ccc3c2)c2ccc3c(ccc4c5cc6c(cc5n(-c5ccccc5)c34)c3ccc4cc(N(c5ccccc5)c5ccc7cc(-c8cc9ccccc9o8)ccc7c5)ccc4c3n6-c3ccccc3)c2)cc1 [Compound 13] | 4.51 V | 8.65% | 148 h
3 | CC(C)(C)c1ccc(N(c2ccc3cc(-c4cc5ccccc5o4)ccc3c2)c2ccc3c(ccc4c5cc6c(cc5n(-c5ccc(C(C)(C)C)cc5)c34)c3ccc4cc(N(c5ccc(C(C)(C)C)cc5)c5ccc7cc(-c8cc9ccccc9o8)ccc7c5)ccc4c3n6-c3ccc(C(C)(C)C)cc3)c2)cc1 [Compound 18] | 4.70 V | 8.69% | 146 h
